Experimental data published in patent publication US20250138013A1, “SMALL MOLECULE INHIBITOR TARGETING A LEUKEMIC STEM CELL ASSOCIATED GENE FOR HIGH-RISK AML PATIENTS” (The Chinese University of Hong Kong, priority 2023, published 2025).
At least one structure is not confirmed: it was looked up by name or label, or the drawing left a doubt.

What was measured:
[1] = system: MOLM13-SPINK2 and MOLM13-EV cells; test: Erastin sensitivity of MOLM13 cells overexpressing SPINK2 (cell viability); assay type: cell-based; conditions: 96th hour
SPINK2-KD KG1a cells = test: Erastin sensitivity of KG1a cells with SPINK2 knockdown (cell viability); assay type: cell-based; conditions: erastin 2.5 μM-10 μM, 24 to 48 hours, 48 hours after SPINK2-KD

CCOc1ccccc1-n1c(C(C)N2CCN(C(=O)COc3ccc(Cl)cc3)CC2)nc2ccccc2c1=O (centres unmarked) [erastin]
resistance of MOLM13-SPINK2 vs MOLM13-EV cells to cell death [1]: significantly more resistant | cell viability in SPINK2-KD cells vs. negative control (SPINK2-KD KG1a cells): significantly reduced
